Test: Physical trauma (head injury) model, grip score 18 hours post-injury
Format: in vivo, mice (male CF-1)
Settings: grip score 18 h post trauma, FIGS. 1-8
Text: Two tests which can be readily performed are observation of grip score and observation of grip time in injured test animals. Another test for agonist activity is for decrease in mortality caused by the CNS injury. Mice can be treated to simulate CNS injury by a variety of methods: they can be deprived of oxygen by administration of KCN (Nauquier, A., et al., Arch. Int. Pharmacodyn., 249:330 (1981)) or by temporary tying-off of the carotid artery (Braughler, J. M. and Lainer, M. J., "The effects of large doses of methylprednisolone on neurologic recovery and survival in the Mongolian gerbil following three hours of unilateral carotid occlusion," CNS Trauma, 3:153-162 (1986)). Alternatively, blows can be administered to the head or the spinal cord of the test animal.
The following protocol was used: […]
Immediately following injury, the mouse was placed under a heat lamp. […] The time of injury and the time of injection were recorded. […]
Each mouse was evaluated 18 hours post-injury for neurological deficit. […]
Each mouse was picked up by the tail and placed on the string. […] Grip score was recorded based on the mouse's performance while on the string. […]
C) Statistical Analysis Results of the above test were analyzed for statistical significance using the Mann-Whitney U test. […]

CN1C(=O)CN=C(c2ccccc2)c2cc(Cl)ccc21 [Diazepam, 7-Chloro-1,3-dihydro-1-methyl-5-phenyl-2H-1,4-benzodiazepin-2-one]
effectiveness in treatment of CNS trauma/damage (in words): effective

From patent US5550124A, “Use of peripheral-type benzodiazpine sites for treatment of CNS trauma or disease” (priority 1991, dated 1996)
